Test results as given in article PMC12462528, “Molecular basis of ParA ATPase activation by the CTPase ParB during bacterial chromosome segregation” (Nature Communications, 2025).
Positions count from the first letter of the chain named. In names and notes the source's numbering stands. No constants are given. Whether binding was seen depends on the method and setting. Some entries that bind do so weakly or less than the wild type. One block for each binder: values may come before it.

Key:
ParB-Q52A = target: T1, ParB-Q52A (Myxococcus xanthus DK1622, UniProt Q1CVJ4 1-296, Q52A); assay: BLI; ParB-Q52A (10 µM) loaded on closed parS DNA on the biosensor; ParA variants (5 µM) in solution with ATP (1 mM) and 500 mM KCl; both purified
T1 construct: ParB of Myxococcus xanthus DK1622, variant lacking CTPase activity; Closed clamps formed with CTP and parS DNA; also called CTP hydrolysis-deficient ParB variant; source: E. coli Rosetta(DE3)pLysS, purified (as wild-type ParB)
T1 sequence (looked up): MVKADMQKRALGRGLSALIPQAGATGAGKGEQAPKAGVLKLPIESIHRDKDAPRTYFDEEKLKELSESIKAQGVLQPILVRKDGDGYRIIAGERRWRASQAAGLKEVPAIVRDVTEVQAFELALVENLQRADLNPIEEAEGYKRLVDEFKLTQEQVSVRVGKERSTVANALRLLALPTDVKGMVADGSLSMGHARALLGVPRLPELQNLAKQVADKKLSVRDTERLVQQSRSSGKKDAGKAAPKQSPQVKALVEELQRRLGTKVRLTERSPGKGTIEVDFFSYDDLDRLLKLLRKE

[1] = target: T2, ParBΔ21 (Myxococcus xanthus DK1622) (UniProt Q1CVJ4); assay: BLI; double-biotinylated 234-bp parS DNA on streptavidin biosensor, loaded with ParB or its derivatives (10 µM) and 1 mM CTPγS; ParA-R238E variants in solution with 1 mM ATP; 25 mM HEPES/KOH pH 7.6, 100 mM KCl, 10 mM MgSO4, 1 mM DTT; apparent KD; both purified
T2 sequence: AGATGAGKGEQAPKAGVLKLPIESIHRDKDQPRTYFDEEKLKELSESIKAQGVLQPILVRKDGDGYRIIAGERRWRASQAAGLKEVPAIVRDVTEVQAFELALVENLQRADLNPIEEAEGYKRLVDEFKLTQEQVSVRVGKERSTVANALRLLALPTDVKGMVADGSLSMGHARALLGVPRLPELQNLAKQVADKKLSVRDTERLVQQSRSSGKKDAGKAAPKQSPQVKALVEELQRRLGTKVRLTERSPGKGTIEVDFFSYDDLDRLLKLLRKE

[2] = target: T3, ParA-D60A (Myxococcus xanthus DK1622) (UniProt Q1CVJ3); assay: HDX-MS; 50 µM ParA or ParA-D60A with 1 mM ATP, with or without 1 mM ParB_(1-20) and/or 1 mg/mL salmon sperm DNA; 25 °C (Datasets 1 and 2); both purified
T3 sequence: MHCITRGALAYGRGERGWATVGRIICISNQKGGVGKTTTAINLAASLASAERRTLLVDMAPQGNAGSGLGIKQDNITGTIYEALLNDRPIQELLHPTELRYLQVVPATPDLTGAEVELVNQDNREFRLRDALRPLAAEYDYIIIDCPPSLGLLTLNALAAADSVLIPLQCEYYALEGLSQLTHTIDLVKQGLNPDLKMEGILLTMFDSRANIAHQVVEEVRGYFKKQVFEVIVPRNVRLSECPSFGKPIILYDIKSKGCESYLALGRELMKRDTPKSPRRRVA

[3] = target: T3, ParA-D60A (Myxococcus xanthus DK1622); assay: HDX-MS; 50 µM ParA-D60A with 1 mM ATP and 1 mM CTP, with or without 100 µM ParB-Q52A pre-closed with 2.5 µM parS stem-loop and/or 1 mg/mL salmon sperm DNA; 25 °C (Dataset 3); both purified

binding (ParB-Q52A): binds
B1: ParA-E82R (protein, UniProt Q1CVJ3 1-283)
chain: T3 sequence with A60D, E82R

binding [1]: no binding (tested: 10 µM)
B2: ParA-R238E (natural protein, Myxococcus xanthus DK1622, UniProt Q1CVJ3 1-283, looked up)
chain: T3 sequence with A60D, R238E
notes: ParA of Myxococcus xanthus DK1622, translation product of ORF MXAN_7477; Purified as His6-ParA; no tag cleavage step is described; also called His6-ParA-R238E; source: E. coli Rosetta(DE3)pLysS, purified (HisTrap HP, HiTrap Q HP)

binding [2]: binds weakly
B3: ParB_(1-20) peptide (peptide, UniProt Q1CVJ4 1-20, looked up)
peptide: MVKADMQKRALGRGLSALIP
notes: also called N-terminal peptide of ParB; source: synthetic peptide

binding [3]: binds weakly
B4: ParB-Q52A (protein, UniProt Q1CVJ4 1-296)
chain: T1 sequence (looked up)
